Source: EP0292255A2, “Inhibitor of ribonucleotide reductase” (Merck & Co., Inc., priority 1987, dated 1988)
Not every detail of the peptide structures is certain; ends, links or a residue may be inferred.

System: Herpes Simplex Virus Ribonucleotide Reductase
Assay: Assay of inhibition of HSV RR activity (reduction of tritiated cytidine diphosphate)
Format: biochemical, HSV2 Strain 186
Conditions: result in words

Question: For `CC(C)C[C@H](NC(=O)[C@H](CC(=O)O)NC(=O)[C@H](CC(N)=O)NC(=O)[C@@H](NC(=O)[C@@H](N)C(C)C)C(C)C)C(=O)O` [Val Val Asn Asp Leu], which “inhibition of the activity of the ribonucleotide reductase enzyme of herpes simplex virus in vitro” value is on record?
Answer: inhibits the activity
